This note sets out measurements from paper PMC10571979.

By UniProt entry, the sequences of proteins in these tests, tags left out.
UniProt Q07157: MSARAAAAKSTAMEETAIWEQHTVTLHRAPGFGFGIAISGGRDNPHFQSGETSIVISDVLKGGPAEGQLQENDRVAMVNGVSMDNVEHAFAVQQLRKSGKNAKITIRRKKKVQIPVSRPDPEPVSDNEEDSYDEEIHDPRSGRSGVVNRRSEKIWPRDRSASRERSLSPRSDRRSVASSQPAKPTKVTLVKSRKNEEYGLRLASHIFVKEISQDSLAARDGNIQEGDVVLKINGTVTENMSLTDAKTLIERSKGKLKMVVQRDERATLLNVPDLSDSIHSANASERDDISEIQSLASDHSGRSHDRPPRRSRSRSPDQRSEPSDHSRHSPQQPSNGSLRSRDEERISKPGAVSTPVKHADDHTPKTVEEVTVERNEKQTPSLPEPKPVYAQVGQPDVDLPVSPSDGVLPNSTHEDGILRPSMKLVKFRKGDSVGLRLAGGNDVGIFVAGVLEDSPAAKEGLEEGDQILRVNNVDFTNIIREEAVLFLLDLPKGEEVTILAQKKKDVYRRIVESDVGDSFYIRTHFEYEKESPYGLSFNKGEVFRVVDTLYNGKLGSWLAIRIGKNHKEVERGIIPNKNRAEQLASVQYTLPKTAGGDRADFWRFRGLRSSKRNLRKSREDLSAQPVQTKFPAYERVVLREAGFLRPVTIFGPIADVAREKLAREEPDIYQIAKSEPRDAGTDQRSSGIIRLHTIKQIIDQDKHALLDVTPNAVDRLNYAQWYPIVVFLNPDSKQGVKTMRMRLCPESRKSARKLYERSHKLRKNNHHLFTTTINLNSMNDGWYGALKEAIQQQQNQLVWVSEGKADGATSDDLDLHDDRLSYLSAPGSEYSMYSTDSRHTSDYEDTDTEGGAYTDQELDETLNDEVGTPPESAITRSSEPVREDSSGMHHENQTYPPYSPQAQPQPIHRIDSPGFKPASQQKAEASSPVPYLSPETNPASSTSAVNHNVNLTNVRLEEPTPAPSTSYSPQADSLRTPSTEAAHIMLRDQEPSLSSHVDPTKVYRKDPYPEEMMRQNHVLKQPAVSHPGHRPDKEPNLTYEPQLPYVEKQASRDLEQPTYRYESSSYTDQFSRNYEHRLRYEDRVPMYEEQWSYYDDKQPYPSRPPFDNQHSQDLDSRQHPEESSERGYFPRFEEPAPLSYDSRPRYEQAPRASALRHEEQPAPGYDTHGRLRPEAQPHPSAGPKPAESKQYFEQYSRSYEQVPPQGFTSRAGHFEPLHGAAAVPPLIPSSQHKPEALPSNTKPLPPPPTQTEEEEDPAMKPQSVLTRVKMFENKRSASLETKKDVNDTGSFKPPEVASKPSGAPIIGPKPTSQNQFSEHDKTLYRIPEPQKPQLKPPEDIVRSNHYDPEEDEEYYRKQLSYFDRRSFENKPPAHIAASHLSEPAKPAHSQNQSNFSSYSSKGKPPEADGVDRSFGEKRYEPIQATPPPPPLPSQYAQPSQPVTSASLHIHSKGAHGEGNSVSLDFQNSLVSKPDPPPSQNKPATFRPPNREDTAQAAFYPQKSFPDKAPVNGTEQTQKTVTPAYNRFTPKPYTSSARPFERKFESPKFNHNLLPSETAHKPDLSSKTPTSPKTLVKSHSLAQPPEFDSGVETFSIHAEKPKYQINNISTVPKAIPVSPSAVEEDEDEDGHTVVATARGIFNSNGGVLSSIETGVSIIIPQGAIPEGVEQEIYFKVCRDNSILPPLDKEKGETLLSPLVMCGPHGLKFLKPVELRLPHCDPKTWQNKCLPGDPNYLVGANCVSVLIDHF

The target in assay [1] is T1, FLAG-CLDN5 (FLAG-tagged human full-length CLDN5) (human) (UniProt O00501).
T1 sequence: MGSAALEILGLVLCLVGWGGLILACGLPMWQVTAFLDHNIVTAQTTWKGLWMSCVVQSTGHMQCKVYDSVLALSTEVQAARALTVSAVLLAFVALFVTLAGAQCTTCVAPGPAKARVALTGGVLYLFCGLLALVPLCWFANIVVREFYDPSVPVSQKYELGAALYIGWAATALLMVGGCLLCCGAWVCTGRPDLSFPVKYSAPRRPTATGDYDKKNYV
As to the kind of experiment: co-IP; HEK-293 co-transfected with FLAG-CLDN5 or FLAG-CLDN5-ΔPDZBM and HA-DVL1 or HA-DVL1-ΔC7; IP with FLAG antibody, blot for FLAG, HA or endogenous ZO-1; 2% NP-40 buffer.

Assay [2] concerns the target T1, FLAG-CLDN5 (FLAG-tagged human full-length CLDN5) (human). Put plainly: co-IP; competition: HEK-293 co-transfected with FLAG-CLDN5, HA-DVL1-WT and increasing doses of HA-DVL1-CT plasmid; IP with FLAG antibody, blot for HA; 2% NP-40 buffer.
Another assay deals with GFP-ZO-1 (UniProt Q07157). As to the kind of experiment: co-IP; HEK-293 co-transfected with GFP-ZO-1 and HA-DVL1-WT, HA-DVL1-WT plus HA-DVL1-CT, HA-DVL1-ΔC7, HA-DVL3-WT or HA-DVL3-ΔC7; IP of ZO-1 with GFP antibody, blot for HA; 2% NP-40 buffer.
Assay [3] deals with T2, disheveled-1 (DVL1), endogenous in bovine retinal endothelial cells (bovine (endogenous in BRECs)) (UniProt F1N6M9).
T2 sequence: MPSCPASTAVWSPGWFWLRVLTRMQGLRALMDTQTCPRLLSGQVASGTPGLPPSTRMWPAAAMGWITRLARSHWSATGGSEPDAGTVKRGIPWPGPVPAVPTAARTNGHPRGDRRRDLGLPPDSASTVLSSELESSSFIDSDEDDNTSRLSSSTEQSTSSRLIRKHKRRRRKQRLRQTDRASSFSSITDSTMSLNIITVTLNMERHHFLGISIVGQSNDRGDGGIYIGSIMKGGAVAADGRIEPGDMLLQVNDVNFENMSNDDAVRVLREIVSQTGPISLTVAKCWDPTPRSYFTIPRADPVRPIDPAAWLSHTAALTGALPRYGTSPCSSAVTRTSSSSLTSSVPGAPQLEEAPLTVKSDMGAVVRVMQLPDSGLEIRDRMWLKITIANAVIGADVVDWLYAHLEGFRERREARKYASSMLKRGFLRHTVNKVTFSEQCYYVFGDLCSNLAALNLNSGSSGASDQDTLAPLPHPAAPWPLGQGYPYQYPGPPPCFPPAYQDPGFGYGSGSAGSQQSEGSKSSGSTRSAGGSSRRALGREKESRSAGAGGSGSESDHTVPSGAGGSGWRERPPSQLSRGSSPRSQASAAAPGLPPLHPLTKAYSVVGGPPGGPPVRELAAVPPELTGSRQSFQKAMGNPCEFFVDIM
As to the kind of experiment: co-IP; endogenous proteins in BREC lysate (co-IP buffer with 2% NP-40); IP with the Pan-DVL antibody (detects DVL1 and DVL3), blot for CLDN5 and ZO-1; monolayers treated with vehicle, norrin 40 ng/mL, VEGF 50 ng/mL or both for 72 h.

No constants are given. Whether binding was seen depends on the method and setting. Binding seen in cells or lysates may run through a third protein. Some entries that bind do so weakly or less than the wild type. For some assays here: Where a sequence is shown, tags or fusion partners need not be part of it.

Regarding “ZO-1, endogenous in HEK-293 cells (from UniProt Q07157 1-1748)”, the binding entry in assay [1] is “binds”.

B1: HA-DVL1-WT (human full-length DVL1) (protein, UniProt O14640 1-695)
chain: MAETKIIYHMDEEETPYLVKLPVAPERVTLADFKNVLSNRPVHAYKFFFKSMDQDFGVVKEEIFDDNAKLPCFNGRVVSWLVLAEGAHSDAGSQGTDSHTDLPPPLERTGGIGDSRPPSFHPNVASSRDGMDNETGTESMVSHRRERARRRNREEAARTNGHPRGDRRRDVGLPPDSASTALSSELESSSFVDSDEDGSTSRLSSSTEQSTSSRLIRKHKRRRRKQRLRQADRASSFSSITDSTMSLNIVTVTLNMERHHFLGISIVGQSNDRGDGGIYIGSIMKGGAVAADGRIEPGDMLLQVNDVNFENMSNDDAVRVLREIVSQTGPISLTVAKCWDPTPRSYFTVPRADPVRPIDPAAWLSHTAALTGALPRYGTSPCSSAVTRTSSSSLTSSVPGAPQLEEAPLTVKSDMSAVVRVMQLPDSGLEIRDRMWLKITIANAVIGADVVDWLYTHVEGFKERREARKYASSLLKHGFLRHTVNKITFSEQCYYVFGDLCSNLATLNLNSGSSGTSDQDTLAPLPHPAAPWPLGQGYPYQYPGPPPCFPPAYQDPGFSYGSGSTGSQQSEGSKSSGSTRSSRRAPGREKERRAAGAGGSGSESDHTAPSGVGSSWRERPAGQLSRGSSPRSQASATAPGLPPPHPTTKAYTVVGGPPGGPPVRELAAVPPELTGSRQSFQKAMGNPCEFFVDIM
Regarding B1, the binding result (in assay [2]; in assay [1]; with GFP-ZO-1) was “binds” in each case.

B2: claudin-5 (CLDN5), endogenous in bovine retinal endothelial cells (protein, UniProt Q2HJ22 1-218)
chain: MGSAALEILGLVLCLVGWVGLILACGLPMWQVTAFLDHNIVTAQTTWKGLWMSCVVQSTGHMQCKVYDSVLALSPEVQAARALTVGAVLLALVALFVTLAGAQCTTCVAPGPAKARVALTGGALYALCGLLALVPLCWFANIVVREFYDPTVPMSQKYELGAALYIGWAASALLMCGGGLVCCGAWVCTGRPDFSFPVKYSASRRPTATGDYDKKNYV
Turning to B2, the binding result in assay [3] was “binds”.
